# Measurements from US20200222474A1, “COMPOSITIONS AND METHODS FOR INCREASING PHYTOCHEMICAL BIOAVAILABLITY AND BIOACTIVITY” (North Carolina State University, priority 2017, published 2020).
# This continues a long series; more values of the same kind are listed elsewhere.
# Tested on: L. acidophilus NCFM
# Assay: RNA-seq transcriptional analysis of L. acidophilus NCFM growing on plant glycosides
# Type: cell-based, Lactobacillus acidophilus
# [1] = LBA1974 Pyruvate oxidase, COG EH
# [2] = gene LBA0802 (Hypothetical protein)
# [3] = gene LBA0863 (Hypothetical protein)
# [4] = gene LBA0878 (Hypothetical protein)
# [5] = gene LBA0888 (Hypothetical protein)
# [6] = gene LBA0987 (Hypothetical protein)
# [7] = gene LBA1019 (Mucus binding protein)
# [8] = gene LBA1020 (Mucus binding protein)
# [9] = gene LBA1227 (Hypothetical protein)
# [10] = gene LBA1370 (Putative bacteriophage-related protein)
# [11] = gene LBA1409 (Hypothetical protein LBA1409)
# [12] = gene LBA1460 (Mucus binding protein precursor)
# [13] = gene LBA1461 (Putative regulator)
# [14] = gene LBA1539 (Hypothetical protein)
# [15] = gene LBA1608 (Hypothetical protein)
# [16] = gene LBA1612 (Fibrinogen-binding protein)
# [17] = gene LBA1652 (Mucus binding protein precursor Mub)
# [18] = gene LBA1655 (Hypothetical protein)
# [19] = gene LBA1686 (Hypothetical protein)
# [20] = gene LBA1693 (Hypothetical protein)
# [21] = gene LBA1694 (Hypothetical protein)
# [22] = gene LBA1709 (Mucus binding protein precursor Mub)
# [23] = gene LBA1784 (Hypothetical protein)
# [24] = gene LBA1786 (Hypothetical protein)
# [25] = gene LBA1791 (Hypothetical protein)
# [26] = gene LBA1792 (Hypothetical protein)
# [27] = gene LBA1794 (Gassericin K7 B accessory protein)
# [28] = gene LBA1797 (Hypothetical protein)
# [29] = gene LBA1801 (Hypothetical protein)
# [30] = gene LBA1802 (Hypothetical protein)
# [31] = gene LBA1803 (Hypothetical protein.)
# [32] = gene LBA1804 (Hypothetical protein)
# [33] = gene LBA1805 (Hypothetical protein)
# [34] = gene without printed locus tag, last line of Table 5 (Hypothetical protein)
smiles,measurement,setting,value
N#C[C@H](O[C@@H]1O[C@H](CO[C@@H]2O[C@H](CO)[C@@H](O)[C@H](O)[C@H]2O)[C@@H](O)[C@H](O)[C@H]1O)c1ccccc1 [Amygdalin],Log2 differential normalized TPM ratio compared to glucose,[1],5.5
same,Log2 differential normalized TPM ratio compared to lactose,[1],3.1
same,Transcripts per million (rpm),[1],3124.6 rpm
same,Log2 differential normalized TPM ratio compared to glucose,[2],2.3
same,Log2 differential normalized TPM ratio compared to lactose,[2],2
same,Transcripts per million (rpm),[2],133.2 rpm
same,Log2 differential normalized TPM ratio compared to glucose,[3],0.4
same,Log2 differential normalized TPM ratio compared to lactose,[3],−0.4
same,Transcripts per million (rpm),[3],53.7 rpm
same,Log2 differential normalized TPM ratio compared to glucose,[4],2
same,Log2 differential normalized TPM ratio compared to lactose,[4],0.9
same,Transcripts per million (rpm),[4],2.5 rpm
same,Log2 differential normalized TPM ratio compared to glucose,[5],2.5
same,Log2 differential normalized TPM ratio compared to lactose,[5],1.4
same,Transcripts per million (rpm),[5],138.9 rpm
same,Log2 differential normalized TPM ratio compared to glucose,[6],2.8
same,Log2 differential normalized TPM ratio compared to lactose,[6],−0.2
same,Transcripts per million (rpm),[6],3.7 rpm
same,Log2 differential normalized TPM ratio compared to glucose,[7],3.1
same,Log2 differential normalized TPM ratio compared to lactose,[7],2.1
same,Transcripts per million (rpm),[7],91.3 rpm
same,Log2 differential normalized TPM ratio compared to glucose,[8],−1.2
same,Log2 differential normalized TPM ratio compared to lactose,[8],−1.3
same,Transcripts per million (rpm),[8],49.4 rpm
same,Log2 differential normalized TPM ratio compared to glucose,[9],3.2
same,Log2 differential normalized TPM ratio compared to lactose,[9],2.7
same,Transcripts per million (rpm),[9],523.3 rpm
same,Log2 differential normalized TPM ratio compared to glucose,[10],2
same,Log2 differential normalized TPM ratio compared to lactose,[10],1.5
same,Transcripts per million (rpm),[10],123 rpm
same,Log2 differential normalized TPM ratio compared to glucose,[11],2.3
same,Log2 differential normalized TPM ratio compared to lactose,[11],1.7
same,Transcripts per million (rpm),[11],18.3 rpm
same,Log2 differential normalized TPM ratio compared to glucose,[12],−0.9
same,Log2 differential normalized TPM ratio compared to lactose,[12],−5.1
same,Transcripts per million (rpm),[12],4.5 rpm
same,Log2 differential normalized TPM ratio compared to glucose,[13],−1
same,Log2 differential normalized TPM ratio compared to lactose,[13],−5.9
same,Transcripts per million (rpm),[13],2.3 rpm
same,Log2 differential normalized TPM ratio compared to glucose,[14],1.3
same,Log2 differential normalized TPM ratio compared to lactose,[14],−1.5
same,Transcripts per million (rpm),[14],47.1 rpm
same,Log2 differential normalized TPM ratio compared to glucose,[15],3
same,Log2 differential normalized TPM ratio compared to lactose,[15],2.3
same,Transcripts per million (rpm),[15],139.8 rpm
same,Log2 differential normalized TPM ratio compared to glucose,gene LBA1611 (Surface protein),1.1
same,Log2 differential normalized TPM ratio compared to lactose,gene LBA1611 (Surface protein),1.6
same,Transcripts per million (rpm),gene LBA1611 (Surface protein),290.9 rpm
same,Log2 differential normalized TPM ratio compared to glucose,[16],1.3
same,Log2 differential normalized TPM ratio compared to lactose,[16],1.2
same,Transcripts per million (rpm),[16],270.7 rpm
same,Log2 differential normalized TPM ratio compared to glucose,gene LBA1633 (Surface protein),2.3
same,Log2 differential normalized TPM ratio compared to lactose,gene LBA1633 (Surface protein),1.1
same,Transcripts per million (rpm),gene LBA1633 (Surface protein),29.1 rpm
same,Log2 differential normalized TPM ratio compared to glucose,[17],3
same,Log2 differential normalized TPM ratio compared to lactose,[17],2.4
same,Transcripts per million (rpm),[17],73.8 rpm
same,Log2 differential normalized TPM ratio compared to glucose,[18],2.1
same,Log2 differential normalized TPM ratio compared to lactose,[18],1.8
same,Transcripts per million (rpm),[18],14.5 rpm
same,Log2 differential normalized TPM ratio compared to glucose,[19],2.5
same,Log2 differential normalized TPM ratio compared to lactose,[19],2.8
same,Transcripts per million (rpm),[19],826.6 rpm
same,Log2 differential normalized TPM ratio compared to glucose,[20],−0.6
same,Log2 differential normalized TPM ratio compared to lactose,[20],−1.6
same,Transcripts per million (rpm),[20],57.4 rpm
same,Log2 differential normalized TPM ratio compared to glucose,[21],−1.3
same,Log2 differential normalized TPM ratio compared to lactose,[21],−2.3
same,Transcripts per million (rpm),[21],28.8 rpm
same,Log2 differential normalized TPM ratio compared to glucose,[22],4.5
same,Log2 differential normalized TPM ratio compared to lactose,[22],4
same,Transcripts per million (rpm),[22],48.2 rpm
same,Log2 differential normalized TPM ratio compared to glucose,[23],1.6
same,Log2 differential normalized TPM ratio compared to lactose,[23],−0.3
same,Transcripts per million (rpm),[23],107.9 rpm
same,Log2 differential normalized TPM ratio compared to glucose,[24],1.8
same,Log2 differential normalized TPM ratio compared to lactose,[24],−0.4
same,Transcripts per million (rpm),[24],69.4 rpm
same,Log2 differential normalized TPM ratio compared to glucose,[25],1.6
same,Log2 differential normalized TPM ratio compared to lactose,[25],−0.6
same,Transcripts per million (rpm),[25],44.6 rpm
same,Log2 differential normalized TPM ratio compared to glucose,[26],1.6
same,Log2 differential normalized TPM ratio compared to lactose,[26],−0.7
same,Transcripts per million (rpm),[26],36.6 rpm
same,Log2 differential normalized TPM ratio compared to glucose,[27],2.2
same,Log2 differential normalized TPM ratio compared to lactose,[27],−0.1
same,Transcripts per million (rpm),[27],54.4 rpm
same,Log2 differential normalized TPM ratio compared to glucose,[28],4.7
same,Log2 differential normalized TPM ratio compared to lactose,[28],−0.1
same,Transcripts per million (rpm),[28],2913.5 rpm
same,Log2 differential normalized TPM ratio compared to glucose,[29],3.1
same,Log2 differential normalized TPM ratio compared to lactose,[29],0.7
same,Transcripts per million (rpm),[29],30.2 rpm
same,Log2 differential normalized TPM ratio compared to glucose,[30],3.2
same,Log2 differential normalized TPM ratio compared to lactose,[30],0.6
same,Transcripts per million (rpm),[30],55.9 rpm
same,Log2 differential normalized TPM ratio compared to glucose,[31],2.9
same,Log2 differential normalized TPM ratio compared to lactose,[31],−0.1
same,Transcripts per million (rpm),[31],81.4 rpm
same,Log2 differential normalized TPM ratio compared to glucose,[32],3.4
same,Log2 differential normalized TPM ratio compared to lactose,[32],−0.3
same,Transcripts per million (rpm),[32],162.2 rpm
same,Log2 differential normalized TPM ratio compared to glucose,[33],3.7
same,Log2 differential normalized TPM ratio compared to lactose,[33],−0.2
same,Transcripts per million (rpm),[33],319.7 rpm
same,Log2 differential normalized TPM ratio compared to glucose,[34],1.2
same,Log2 differential normalized TPM ratio compared to lactose,[34],1
same,Transcripts per million (rpm),[34],35.4 rpm
